Measured values: article doi:10.1101/177881
No constants are given. Whether binding was seen depends on the method and setting. Binding seen in cells or lysates may run through a third protein.

By UniProt entry, the sequences of proteins in these tests, tags left out.
UniProt Q00987: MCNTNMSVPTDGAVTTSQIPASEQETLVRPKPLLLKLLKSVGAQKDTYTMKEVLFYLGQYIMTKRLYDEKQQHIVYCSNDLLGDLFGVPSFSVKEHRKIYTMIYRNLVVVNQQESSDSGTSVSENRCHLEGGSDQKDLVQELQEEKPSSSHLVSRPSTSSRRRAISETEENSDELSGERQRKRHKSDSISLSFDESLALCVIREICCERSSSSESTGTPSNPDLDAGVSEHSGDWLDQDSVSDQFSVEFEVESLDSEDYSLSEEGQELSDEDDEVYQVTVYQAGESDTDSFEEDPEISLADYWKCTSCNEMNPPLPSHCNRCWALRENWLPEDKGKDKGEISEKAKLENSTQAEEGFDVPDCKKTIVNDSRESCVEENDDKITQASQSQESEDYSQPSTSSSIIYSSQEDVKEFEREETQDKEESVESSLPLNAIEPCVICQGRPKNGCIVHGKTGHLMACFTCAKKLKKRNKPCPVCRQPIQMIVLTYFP

Biological target: HA-MDM2 (UniProt Q00987)
Experiment: co-IP

Myc-SPIN1 (from UniProt Q9Y657 1-262)
binding: no binding
